# Laboratory results from PubChem BioAssay AID248 (DTP/NCI, 2004).
# The list is a part of this screen's results and no random one: it covers a few groups of compounds. Not every dose and run of a compound is shown. T/C gives the treated animals as a percentage of the vehicle group. Some doses have a count of surviving animals in place of a T/C: the source files T/C as zero there, which appears to mark a toxic dose or a test without result, not a measured value. Some doses without a T/C left all or most animals alive at the check, yet need not have been tolerated: the source hardly ever lists a survival T/C far under the control, and the zero likely stands for such cases as well. Counts of survivors are from the toxicity check (mostly the fifth day) where no day follows; animals may have died later. Schedule codes are those of the source, taken here to give the interval after Q, in days (D) or hours (H), and the number of doses after X. Some schedule codes hold Z or #, which are not explained here. For survival time, the PubChem record calls one and a half times the control and up active, and a quarter to a half above the control has no call in these data; cut-offs in other NCI protocols can differ. Brackets with × give the number of equal values in this list. Some T/C values are followed by the survivors on the day toxicity was checked, most often the fifth; without a count or a note in brackets, all were alive then. Some entries hold several experiments; the values are given in rising order.
# Test system: L1210 leukemia ip in BDF1 mice, survival T/C
# Assay: NCI In Vivo Anticancer Drug Screen. Data for tumor model L1210 Leukemia (intraperitoneal) in B6D2F1 (BDF1) mice
# Settings: T/C endpoint: mean survival time, higher T/C = longer survival
# [1] = dose: 160.0 mg/kg/injection, schedule: Q01DX001 (ip), vehicle: saline
# [2] = dose: 160.0 mg/kg/injection, schedule: Q01DX Z (oral), vehicle: saline
# [3] = dose: 280.0 mg/kg/injection, schedule: Q01DX001 (ip), vehicle: saline
structure (smiles),measurement,setting,value
OC(CNCCCl)C(O)C(O)C(O)CNCCCl (centres undefined),T/C,"dose: 23.0 mg/kg/injection, schedule: Q07DX Z (ip), vehicle: saline",152 % of control
same,T/C,"dose: 24.0 mg/kg/injection, schedule: Q03HX024 (ip), vehicle: saline",119 % of control
same,T/C,"dose: 25.0 mg/kg/injection, schedule: Q01DX001 (ip), vehicle: saline",112 % of control
same,T/C,"dose: 25.0 mg/kg/injection, schedule: Q01DX002 (ip), vehicle: saline",130 and 132 % of control
same,survivor count,"dose: 25.0 mg/kg/injection, schedule: Q01DX Z (ip), vehicle: saline",6 of 6
same,T/C,"dose: 25.5 mg/kg/injection, schedule: Q01DX Z (ip), vehicle: carboxymethylcellulose (CMC)",137 % of control
same,T/C,"dose: 30.0 mg/kg/injection, schedule: Q01DX009 (ip), vehicle: saline",126 % of control
same,T/C,"dose: 30.0 mg/kg/injection, schedule: Q03DX Z (ip), vehicle: saline",168 % of control
same,T/C,"dose: 30.0 mg/kg/injection, schedule: Q#A X Z (ip), vehicle: saline",98 % of control
same,T/C,"dose: 32.0 mg/kg/injection, schedule: Q01DX Z (ip), vehicle: saline",141 and 155 % of control
same,T/C,"dose: 34.0 mg/kg/injection, schedule: Q01DX Z (ip), vehicle: carboxymethylcellulose (CMC)",122 % of control
same,T/C,"dose: 35.0 mg/kg/injection, schedule: Q01DX001 (ip), vehicle: saline","121, 127, 147, 155 % of control"
same,T/C,"dose: 35.0 mg/kg/injection, schedule: Q01DX002 (ip), vehicle: saline",132 % of control (2×)
same,T/C,"dose: 35.0 mg/kg/injection, schedule: Q07DX Z (ip), vehicle: saline",133 and 148 % of control
same,T/C,"dose: 36.0 mg/kg/injection, schedule: Q03HX024 (ip), vehicle: saline",130 % of control
same,T/C,"dose: 40.0 mg/kg/injection, schedule: Q01DX001 (ip), vehicle: saline","107, 140, 144 % of control"
same,T/C,"dose: 40.0 mg/kg/injection, schedule: Q01DX001 (oral), vehicle: saline",100 % of control
same,T/C,"dose: 40.0 mg/kg/injection, schedule: Q01DX006 (iv), vehicle: saline",103 and 112 % of control
same,T/C,"dose: 40.0 mg/kg/injection, schedule: Q01DX009 (ip), vehicle: saline",123 % of control
same,T/C,"dose: 40.0 mg/kg/injection, schedule: Q01DX009 (oral), vehicle: saline",101 % of control
same,T/C,"dose: 40.0 mg/kg/injection, schedule: Q01DX009 (sc), vehicle: saline",133 % of control
same,T/C,"dose: 40.0 mg/kg/injection, schedule: Q01DX Z (im), vehicle: saline",108 and 116 % of control
same,T/C,"dose: 40.0 mg/kg/injection, schedule: Q01DX Z (ip), vehicle: saline",102 and 105 % of control
same,T/C,"dose: 40.0 mg/kg/injection, schedule: Q01DX Z (oral), vehicle: saline",101 and 116 % of control
same,T/C,"dose: 40.0 mg/kg/injection, schedule: Q01DX Z (sc), vehicle: saline",102 and 113 % of control
same,T/C,"dose: 40.0 mg/kg/injection, schedule: Q## X002 (ip), vehicle: saline",148 % of control
same,T/C,"dose: 40.0 mg/kg/injection, schedule: Q## X003 (ip), vehicle: saline",158 % of control
same,T/C,"dose: 40.0 mg/kg/injection, schedule: Q## X008 (ip), vehicle: saline",135 % of control
same,T/C,"dose: 40.0 mg/kg/injection, schedule: Q## X016 (ip), vehicle: saline",119 % of control
same,T/C,"dose: 40.0 mg/kg/injection, schedule: Q## X024 (ip), vehicle: saline",148 % of control
same,T/C,"dose: 42.5 mg/kg/injection, schedule: Q01DX Z (ip), vehicle: carboxymethylcellulose (CMC)",113 % of control
same,survivor count,"dose: 45.0 mg/kg/injection, schedule: Q#A X Z (ip), vehicle: saline",6 of 6
same,T/C,"dose: 48.0 mg/kg/injection, schedule: Q01DX Z (ip), vehicle: saline",103 % of control
same,T/C,"dose: 50.0 mg/kg/injection, schedule: Q01DX002 (ip), vehicle: saline",131 and 135 % of control [5 of 6 alive]
same,survivor count,"dose: 50.0 mg/kg/injection, schedule: Q01DX Z (ip), vehicle: saline",6 of 6
same,T/C,"dose: 54.0 mg/kg/injection, schedule: Q01DX001 (ip), vehicle: saline",131 % of control
same,T/C,"dose: 54.0 mg/kg/injection, schedule: Q03HX008 (ip), vehicle: saline",122 % of control
same,T/C,"dose: 54.0 mg/kg/injection, schedule: Q03HX024 (ip), vehicle: saline",130 % of control
same,T/C,"dose: 54.0 mg/kg/injection, schedule: Q04DX003 (ip), vehicle: saline",154 % of control
same,T/C,"dose: 55.0 mg/kg/injection, schedule: Q01DX001 (ip), vehicle: saline",135 % of control
same,survivor count,"dose: 60.0 mg/kg/injection, schedule: Q01DX006 (iv), vehicle: saline",6 of 6
same,survivor count,"dose: 60.0 mg/kg/injection, schedule: Q01DX Z (im), vehicle: saline",6 of 6
same,T/C,"dose: 60.0 mg/kg/injection, schedule: Q01DX Z (ip), vehicle: saline",88 % of control
same,T/C,"dose: 60.0 mg/kg/injection, schedule: Q01DX Z (sc), vehicle: saline",93 % of control
same,T/C,"dose: 60.0 mg/kg/injection, schedule: Q03DX Z (ip), vehicle: saline",131 % of control
same,T/C,"dose: 64.0 mg/kg/injection, schedule: Q01DX Z (ip), vehicle: saline",88 % of control
same,survivor count,"dose: 67.5 mg/kg/injection, schedule: Q#A X Z (ip), vehicle: saline",4 of 6
same,T/C,"dose: 70.0 mg/kg/injection, schedule: Q01DX001 (ip), vehicle: saline",121 and 130 % of control [5 of 6 alive]
same,T/C,"dose: 70.0 mg/kg/injection, schedule: Q07DX Z (ip), vehicle: saline",163 % of control
same,T/C,"dose: 80.0 mg/kg/injection, schedule: Q01DX001 (ip), vehicle: saline, evaluated on day 30","151, 157, 164 % of control"
same,T/C,"dose: 80.0 mg/kg/injection, schedule: Q01DX001 (ip), vehicle: saline, evaluated on day 60",138 % of control
same,T/C,"dose: 80.0 mg/kg/injection, schedule: Q01DX001 (ip), vehicle: saline, run until all animals had died",135 % of control
same,T/C,"dose: 80.0 mg/kg/injection, schedule: Q01DX001 (oral), vehicle: saline",100 % of control
same,T/C,"dose: 80.0 mg/kg/injection, schedule: Q01DX009 (ip), vehicle: saline",90 % of control
same,T/C,"dose: 80.0 mg/kg/injection, schedule: Q01DX009 (oral), vehicle: saline",109 % of control
same,T/C,"dose: 80.0 mg/kg/injection, schedule: Q01DX Z (oral), vehicle: saline",105 and 117 % of control
same,T/C,"dose: 80.0 mg/kg/injection, schedule: Q03HX008 (ip), vehicle: saline",132 % of control
same,T/C,"dose: 80.0 mg/kg/injection, schedule: Q03HX024 (ip), vehicle: saline",160 % of control
same,T/C,"dose: 80.0 mg/kg/injection, schedule: Q04DX003 (ip), vehicle: saline",150 % of control
same,T/C,"dose: 80.0 mg/kg/injection, schedule: Q## X002 (ip), vehicle: saline",170 % of control
same,T/C,"dose: 80.0 mg/kg/injection, schedule: Q## X003 (ip), vehicle: saline",167 % of control
same,T/C,"dose: 80.0 mg/kg/injection, schedule: Q## X008 (ip), vehicle: saline",138 % of control
same,T/C,"dose: 80.0 mg/kg/injection, schedule: Q## X016 (ip), vehicle: saline",140 % of control
same,T/C,"dose: 80.0 mg/kg/injection, schedule: Q## X024 (ip), vehicle: saline",167 % of control
same,survivor count,"dose: 90.0 mg/kg/injection, schedule: Q01DX006 (iv), vehicle: saline",6 of 6
same,survivor count,"dose: 90.0 mg/kg/injection, schedule: Q01DX Z (im), vehicle: saline",6 of 6
same,survivor count,"dose: 90.0 mg/kg/injection, schedule: Q01DX Z (ip), vehicle: saline",5 of 6
same,survivor count,"dose: 90.0 mg/kg/injection, schedule: Q01DX Z (sc), vehicle: saline",6 of 6
same,survivor count,"dose: 100.0 mg/kg/injection, schedule: Q01DX Z (ip), vehicle: saline",4 of 6
same,T/C,"dose: 120.0 mg/kg/injection, schedule: Q01DX001 (ip), vehicle: saline, evaluated on day 60",130 % of control
same,T/C,"dose: 120.0 mg/kg/injection, schedule: Q01DX001 (ip), vehicle: saline, run until all animals had died",138 % of control
same,T/C,"dose: 120.0 mg/kg/injection, schedule: Q01DX Z (oral), vehicle: saline",105 % of control
same,survivor count,"dose: 120.0 mg/kg/injection, schedule: Q03DX Z (ip), vehicle: saline",6 of 6
same,T/C,"dose: 120.0 mg/kg/injection, schedule: Q03HX008 (ip), vehicle: saline",141 % of control
same,T/C,"dose: 120.0 mg/kg/injection, schedule: Q04DX003 (ip), vehicle: saline",121 % of control
same,survivor count,"dose: 135.0 mg/kg/injection, schedule: Q01DX006 (iv), vehicle: saline",3 of 6
same,survivor count,"dose: 135.0 mg/kg/injection, schedule: Q01DX Z (im), vehicle: saline",1 of 6
same,survivor count,"dose: 135.0 mg/kg/injection, schedule: Q01DX Z (ip), vehicle: saline",4 of 6
same,survivor count,"dose: 135.0 mg/kg/injection, schedule: Q01DX Z (sc), vehicle: saline",3 of 6
same,T/C,"dose: 140.0 mg/kg/injection, schedule: Q01DX001 (ip), vehicle: saline",96 and 144 % of control
same,T/C,"dose: 140.0 mg/kg/injection, schedule: Q07DX Z (ip), vehicle: saline",90 % of control [5 of 6 alive]
same,T/C,[1],103 % of control [4 of 6 alive]
same,survivor count,[1],3 of 6
same,T/C,"dose: 160.0 mg/kg/injection, schedule: Q01DX001 (oral), vehicle: saline",103 % of control
same,T/C,"dose: 160.0 mg/kg/injection, schedule: Q01DX009 (oral), vehicle: saline",107 % of control
same,T/C,[2],116 % of control
same,survivor count,[2],6 of 6
same,T/C,"dose: 180.0 mg/kg/injection, schedule: Q01DX001 (ip), vehicle: saline",108 % of control [7 of 10 alive]
same,T/C,"dose: 180.0 mg/kg/injection, schedule: Q01DX Z (oral), vehicle: saline",89 % of control
same,T/C,"dose: 180.0 mg/kg/injection, schedule: Q03HX008 (ip), vehicle: saline",143 % of control
same,T/C,"dose: 180.0 mg/kg/injection, schedule: Q04DX003 (ip), vehicle: saline",101 % of control [8 of 10 alive]
same,survivor count,"dose: 240.0 mg/kg/injection, schedule: Q01DX Z (oral), vehicle: saline",6 of 6
same,survivor count,"dose: 270.0 mg/kg/injection, schedule: Q01DX Z (oral), vehicle: saline",6 of 6
same,T/C,[3],97 and 101 % of control
same,survivor count,[3],0 of 6
same,survivor count,"dose: 280.0 mg/kg/injection, schedule: Q07DX Z (ip), vehicle: saline",2 of 6
same,survivor count,"dose: 320.0 mg/kg/injection, schedule: Q01DX001 (ip), vehicle: saline",0 of 6
same,T/C,"dose: 320.0 mg/kg/injection, schedule: Q01DX001 (oral), vehicle: saline",108 % of control
same,survivor count,"dose: 320.0 mg/kg/injection, schedule: Q01DX009 (oral), vehicle: saline",6 of 6
same,survivor count,"dose: 360.0 mg/kg/injection, schedule: Q01DX Z (oral), vehicle: saline",5 of 6
same,survivor count,"dose: 420.0 mg/kg/injection, schedule: Q01DX001 (ip), vehicle: saline",6 of 6
same,survivor count,"dose: 630.0 mg/kg/injection, schedule: Q01DX001 (ip), vehicle: saline",6 of 6
same,survivor count,"dose: 640.0 mg/kg/injection, schedule: Q01DX001 (ip), vehicle: saline",0 of 6
same,T/C,"dose: 640.0 mg/kg/injection, schedule: Q01DX001 (oral), vehicle: saline",101 % of control
